Assay results reported in patent publication US8765762B2, “Pyrazolopyridazines and methods for treating retinal-degerative diseases and hearing loss associated with usher syndrome” (Usher III Initiative, priority 2012, dated 2014).
pIC50: −log10 of the molar value. Some of these results come from one statement about several compounds together.

The compounds below were run on N48K Clarin-1 (assay: Restoration of expression of N48K Clarin-1 (24 hour incubation), Example 20). Conditions: HEK293-Clarin-1 N48K-HA D9 cell line; 24 hr incubation with compound; HA-Clarin-1 staining per cell.
Format: cell-based
Method: Assay Method Showing Activity of Compounds of the Invention that Restore Expression of N48K Clarin-1 (24 Hour Incubation)
Clarin-1 is the protein encoded by the gene mutated in Usher III Syndrome (Adato et al., 2002). The most prevalent mutation in Clarin-1 in North America is N48K, which is reported to cause loss of glycosylation and a trafficking defect (Tian et al., 2009). […] Thus it is believed that restoring the trafficking of N48K Clarin-1 to the cell surface provides an avenue of intervention for Usher III Syndrome.
In a typical experiment, these cells were seeded on collagen-coated 96-well plates at a cell density of 20,000 cells per well in Dulbecco's Modified Eagle Medium (DMEM) contain 10% fetal bovine serum in a humidified incubator at 37° C., 5% CO2. After an overnight incubation, compounds were added for a 24 hr incubation in DMEM medium contain 10% fetal bovine serum in a humidified incubator at 37° C., 5% CO2. As a negative control, DMSO was used at 0.25% final concentrations. Compounds were typically tested in triplicate fashion. After the 24 hr incubation with compounds, the cells were fixed by the addition of 10% buffered formalin to the wells to achieve a final concentration of 4% formalin. After a 20 min fixation at room temperature, wells were washed three times with phosphate-buffered saline (PBS) containing Triton X-100 (0.02 phosphate, 150 mM NaCl, 0.1% Triton X-100).
The HA-tagged N48K Clarin-1 was detected with an antibody against the HA tag (HA.11 Clone 16B12 Monoclonal antibody, Covance #MMS-101P) at a dilution of 1:1000 in PBS containing Triton X-100. After a 90 min incubation, wells were washed three times with PBS containing Triton X-100, and a secondary antibody (Goat anti-mouse IgG-Cy3 (1.5 mg/ml), Jackson IR Europe #115165003) was added to the wells at a dilution of 1:250 in PBS containing Triton X-100 for 45 min. Wells were subsequently washed three times with PBS containing Triton X-100, and a final staining for nuclei was performed by the addition of DAPI (4′,6-diamidino-2-phenylindole) at a dilution of 1:10,000. The imaging of the stained cells was performed on an InCell 1000 High Content Imager (GE Healthcare), reading out the Cy3 channel for N48K Clarin-1 and the DAPI channel for nuclei. The images were analyzed and quantitated using a specific algorithm. This algorithm measured the HA-Clarin-1 staining for each cell based on the additional nuclear segmentation of the DAPI signal (FIG. 1). This algorithm measured the intensity per cell, and thus it is less sensitive for variation in cell number. Per well, approximately 2,000 cells were measured to achieve an average density per cell measurement.

**Q.** `O=C(Cn1nc(-c2ccccc2F)c2c(Cl)c(-c3ccccc3)nnc21)N1CCCC1` [Compound 6, 2-[4-chloro-3-(2-fluorophenyl)-5-phenyl-pyrazolo[3,4-c]pyridazin-1-yl]-1-pyrolidin-1-yl-ethanone] was tested. Which pIC50 did it give?
**A.** ≥ 5.70

**Q.** With `CC(C)OCCn1nc(-c2ccccc2)c2c(Cl)c(-c3ccccc3)nnc21` [Compound 7, 4-chloro-1-(2-isopropoxyethyl)-3,5-diphenyl-pyrazolo[3,4-c]pyridazine] as the compound, how does the pIC50 read?
**A.** ≥ 5.70

**Q.** How did the pIC50 turn out when `CC(C)COC(=O)Cn1nc(-c2ccccc2)c2c(Cl)c(-c3ccccc3)nnc21` [Compound 12, isobutyl 2-(4-chloro-3,5-diphenyl-pyrazolo[3,4-c]pyridazin-1-yl)acetate] was run?
**A.** ≥ 5.70

**Q.** How did the pIC50 turn out when `CN1CCN(CCn2nc(-c3cccc(F)c3)c3c(Cl)c(-c4ccccc4)nnc32)CC1` [Compound 8, 4-chloro-3-(3-fluorophenyl)-1-[2-(4-methylpiperazin-1-yl)ethyl]-5-phenyl-pyrazolo[3,4-c]pyridazine] was run?
**A.** ≥ 5.70

**Q.** `O=C(Cn1nc(-c2ccccc2)c2c(Cl)c(-c3cccc(F)c3)nnc21)N1CCCC1` [Compound 11, 2-[4-chloro-5-(3-fluorophenyl)-3-phenyl-pyrazolo[3,4-c]pyridazin-1-yl]-1-pyrrolidin-1-yl-ethanone] was tested. Which pIC50 did it give?
**A.** ≥ 5.70

**Q.** How did the pIC50 turn out when `Fc1cccc(-c2nn(CCN3CCOCC3)c3nnc(-c4ccccc4)c(Cl)c23)c1` [Compound 9, 4-[2-[4-chloro-3-(3-fluorophenyl)-5-phenyl-pyrazolo[3,4-c]pyridazin-1-yl]ethyl]morpholine] was run?
**A.** ≥ 5.70

**Q.** With `CN1CCN(CCn2nc(-c3cccc(F)c3F)c3c(Cl)c(-c4ccccc4)nnc32)CC1` [Compound 5, 4-chloro-3-(2,3-difluorophenyl)-1-[2-(4-methylpiperazin-1-yl)ethyl]-5-phenyl-pyrazolo[3,4-c]pyridazine] as the compound, how does the pIC50 read?
**A.** ≥ 5.70

**Q.** How did the pIC50 turn out when `CN1CCN(CCn2nc(-c3ccc(F)c(F)c3)c3c(Cl)c(-c4ccccc4)nnc32)CC1` [Compound 10, 4-chloro-3-(3,4-difluorophenyl)-1-[2-(4-methylpiperazin-1-yl)ethyl]-5-phenyl-pyrazolo[3,4-c]pyridazine] was run?
**A.** ≥ 5.70

What follows are compounds tested on N48K Clarin-1 (assay: Restoration of expression of N48K Clarin-1 (2 hour incubation), Example 21). Conditions: HEK293-Clarin-1 N48K-HA D9 cell line; 2 hr incubation with compound, then 22 hr in fresh medium; HA-Clarin-1 staining per cell.
Format: cell-based

**Q.** How did the pIC50 turn out when `O=C(Cn1nc(-c2ccc(F)c(F)c2)c2c(Cl)c(-c3ccccc3)nnc21)N1CC[C@@H](F)C1` [Compound 2, 2-[4-chloro-3-(3,4-difluorophenyl)-5-phenyl-pyrazolo[3,4-c]pyridazin-1-yl]-1-[(3R)-3-fluoropyrrolidin-1-yl]ethanone] was run?
**A.** ≥ 5.22

**Q.** How did the pIC50 turn out when `O=C(Cn1nc(-c2ccc(F)cc2)c2c(Cl)c(-c3ccccc3)nnc21)N1CC[C@@H](F)C1` [Compound 1, 2-[4-chloro-3-(4-fluorophenyl)-5-phenyl-pyrazolo[3,4-c]pyridazin-1-yl]-1-[(3R)-3-fluoropyrrolidin-1-yl]ethanone] was run?
**A.** ≥ 4.85

**Q.** How did the pIC50 turn out when `O=C(Cn1nc(-c2cc(F)ccc2F)c2c(Cl)c(-c3ccccc3)nnc21)N1CC[C@@H](F)C1` [Compound 3, 2-[4-chloro-3-(2,5-difluorophenyl)-5-phenyl-pyrazolo[3,4-c]pyridazin-1-yl]-1-[(3R)-3-fluoropyrrolidin-1-yl]ethanone] was run?
**A.** ≥ 4.85

**Q.** `O=C(Cn1nc(-c2cccc(F)c2F)c2c(Cl)c(-c3ccccc3)nnc21)N1CC[C@@H](F)C1` [Compound 4, 2-[4-chloro-3-(2,3-difluorophenyl)-5-phenyl-pyrazolo[3,4-c]pyridazin-1-yl]-1-[(3R)-3-fluoropyrrolidin-1-yl]ethanone] was tested. Which pIC50 did it give?
**A.** ≥ 4.85

Same assay, conditions: HEK293-Clarin-1 N48K-HA D9 cell line; 2 hr incubation with compound, then 22 hr in fresh medium; HA-Clarin-1 staining per cell; listed as compound 1

**Q.** `O=C(Cn1nc(-c2ccc(F)cc2)c2c(Cl)c(-c3ccccc3)nnc21)N1CC[C@@H](F)C1` [Compound 1, 2-[4-chloro-3-(4-fluorophenyl)-5-phenyl-pyrazolo[3,4-c]pyridazin-1-yl]-1-[(3R)-3-fluoropyrrolidin-1-yl]ethanone] was tested. Which pIC50 did it give?
**A.** ≥ 5.22

Same assay, conditions: HEK293-Clarin-1 N48K-HA D9 cell line; 2 hr incubation with compound, then 22 hr in fresh medium; HA-Clarin-1 staining per cell; listed as compound 3

**Q.** `O=C(Cn1nc(-c2cc(F)ccc2F)c2c(Cl)c(-c3ccccc3)nnc21)N1CC[C@@H](F)C1` [Compound 3, 2-[4-chloro-3-(2,5-difluorophenyl)-5-phenyl-pyrazolo[3,4-c]pyridazin-1-yl]-1-[(3R)-3-fluoropyrrolidin-1-yl]ethanone] was tested. Which pIC50 did it give?
**A.** ≥ 5.22
